Laboratory results published in paper PMC12595034.
No constants are given. Whether binding was seen depends on the method and setting. Binding seen in cells or lysates may run through a third protein. These calls come from enrichment with a bait or labelling near it, and not all partners need be listed.

Chains of the proteins cited; added tags and fusions are not shown. Lines headed by an entry give the natural chain unless they say otherwise; changes in a name come on top.
UniProt F4IWJ9: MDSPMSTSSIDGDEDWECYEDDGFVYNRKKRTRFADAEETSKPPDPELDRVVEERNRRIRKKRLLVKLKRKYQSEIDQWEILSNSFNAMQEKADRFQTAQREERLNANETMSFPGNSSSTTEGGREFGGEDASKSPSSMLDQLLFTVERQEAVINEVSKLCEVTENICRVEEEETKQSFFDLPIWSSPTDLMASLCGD

What was measured:
[1] = target: NGSrhino-KNL1 (Arabidopsis thaliana); assay: affinity purification with mass spectrometry; GSrhino-tagged bait expressed in Arabidopsis cell suspension culture; pull-down in triplicate for each bait, on-bead digest, Q Exactive; hits filtered by NSAF against a large control AP-MS dataset of non-related baits
[2] = target: DSN1-CGSrhino (Arabidopsis thaliana) (UniProt F4IWJ9); assay: as above

Binder	binding [1]	binding [2]
HSP20-like chaperones superfamily (protein, UniProt Q9ZW31 1-153) MSMIPSFFNNNRRSNIFDPFSLDVWDPFKELTSSSLSRENSAIVNARVDWRETPEAHVFKADLPGLKKEEVKVEIEEDSVLKISGERHVEKEDKNDTWHRVERSSGQFTRRFRLPENVKMDQVKAAMENGVLTVTVPKAETKKADVKSIQISG	binds	
casein kinase II beta subunit 4 (protein, UniProt O80507 1-283) MYKDRSGGGIMGGGGSSRSEILGGAIDRKRINDALDKHLKKSSPSTSRVFTSKDKDSVPSTSTAKSQLHSRSPDVESDTDSEGSDVSGSEGDDTSWISWFCNLRGNEFFCEVDEDYIQDDFNLCGLSGQVPYYDYALDLILDVESSNGDMFTEEQHEMVESAAEMLYGLIHVRYILTTKGMAAMMEKYKNYDFGRCPRVFCCGQSCLPVGQSDIPRSSTVKIYCPKCEDIYYPRSKYQGNIDGAYFGTTFPHLFLMAYGNMKPQKPAQNYVPKIFGFKVHNKQ		binds
BIN4, MID|double-stranded DNA binding protein (protein, UniProt Q9FLU1 1-454) MSSSSREGSPDWLRSYEAPMTTSLLSLSSSDDDSPYRESEVISSLPLPDDDGDDIVVLETESVELLTRKNSETKVVTKQVSIEQVFSRKKKADASLNLEDSCAGKENGNNVDCEKLSSKHKDAQGGADSVWLVSSDSEPSSPIKQEVTVSTEKDADFVLEATEEEPAVKTVRKEKSPKTKSKSSRKTPKEGNSAQEILKTEDKDTDTTIAEQVTPEKSPKTKSKSSRKTPKEENCAQEILKTEDKDKDTDTDTIIAEEVTTDQKIKPSSGSSSRLPLVLSEKVNRTKVLVECEGDSIDLSGDMGAVGRVVVSDTTGDMYLDLKGTIYKSTIIPSRTFCVVNVGQTEAKIEAIMNDFIQLIPQSNVYEAETMVEGTLEGFTFESDDESNKNAKTAVKPADQSVGTEEETNTKAKPKAKAKGETVIGKKRGRPSKEKQPPAKKARNSAPKKPKAKK	binds	
atPEIP2, AtPEP2|Transducin/WD40 repeat-like superfamily protein (protein, UniProt Q9LF27 1-433) MDIDGEDVSRRLHVKFVTKLDSPFKVPVNSVAIPSNVTRLGLSSIVNSIIESENPEWKTEPFDFLIDGELIRMSLEEFLLAKGISAERTLEIEYIRAVTPRKEEEPSLHDDWVSAVNGSSPRFILTGCYDGLGRVWSSAGSCSHILEGHSGAISSVALVNSNDAETVTVATASKDRTLRLFKFDPAESVDSTTKVRAYKILRGHKASVQSVSAQKSGNMVCSSSWDCTINLWNTNESTSEGESVSVKKRKGNNQAEESQSEGEAVTSLVGHTQCVSSVVWPEHDVIYSSSWDHSVRRWDVETGKDSLNLFCGKALNTVDVGGESSALIAAGGSDPILRVWDPRKPGTSAPVFQFSSHSSWISACKWHKSSWFHLLSASYDGKIMLWDLRTAWPLSVIDTHNDKVLSADWWKGESVVSGGADSNLRISSGIAIS	binds	
ATEXPB3, ATHEXP BETA 1.6, EXPB3|expansin B3 (protein, UniProt Q9M0I2 26-264) TTNRHVSNSHWLPAVATWYGSPNGDGSDGGACGYGTLVDVKPLHARVGAVNPILFKNGEGCGACYKVRCLDKSICSRRAVTVIITDECPGCSKTSTHFDLSGAVFGRLAIAGESGPLRNRGLIPVIYRRTACKYRGKNIAFHVNEGSTDFWLSLLVEFEDGEGDIGSMHIRQAGAREWLEMKHVWGANWCIIGGPLKGPFSIKLTTLSAGKTLSATDVVPRNWAPKATYSSRLNFSPVL	binds	
ATUBA2, UBA 2|ubiquitin activating enzyme 2 (protein, UniProt P92974 1-1077) MEPFVVKENIIASASSPMKKRRIDHTESADGSAINASNSSSIGLNNSIGGNDTVMSMAEFGNDNSNNQEIDEDLHSRQLAVYGRETMRKLFASNVLISGMQGLGVEIAKNIILAGVKSVTLHDENVVELWDLSSNFVFTEEDIGKNRALASVHKLQELNNAVAVSTLTGKLTKEQLSDFQVVVFVDISFEKATEIDDYCHSHQPPIAFIKADVRGLFGSLFCDFGPHFTVLDVDGEEPHSGIIASVSNENPGFVSCVDDERLEFEDGNLVVFSEVEGMTELNDGKPRKIKNVKPFSFTLEEDTSSYGQYMKGGIVTQVKQPKVLNFKPLREALKDPGDFLLSDFSKFDRPPLLHLAFQALDRFSSQAGRFPFAGSEEDAQKLVEIAVDINEGLGDARLEDVNSKLLRHLAFGSRAVLNPMAAMFGGIVGQEVVKACSGKFHPIFQFFYFDSVESLPKEPLDASEFRPQNSRYDAQISVFGSTLQKKLEDARVFVVGAGALGCEFLKNLALMGVSCGTQGKLTVTDDDVIEKSNLSRQFLFRDWNIGQAKSTVAATAAAGINSRLNIDALQNRVGPETENVFDDSFWENLTVVVNALDNVTARLYVDSRCVYFQKPLLESGTLGAKCNTQMVIPHLTENYGASRDPPEKQAPMCTVHSFPHNIDHCLTWARSEFEGLLEKTPAEVNAYLSDPVEYMKAMRTAGDAQARDTLGRVVECLEKEKCNSFQDCITWARLRFEDYFANRVKQLCYTFPEDAATSTGAPFWSAPKRFPRPLQFSSTDLSHINFVMAASILRAETFGIPTPEWAKTRAGLAEAVERVIVPDFEPKKDATIVTDEKATTLSTASVDDAAVIDELNAKLVRCRMSLQPEFRMKAIQFEKDDDTNYHMDMIAGLANMRARNYSVPEVDKLKAKFIAGRIIPAIATSTAMATGFVCLEMYKVLDGSHKVEDYRNTFANLALPLFSMAEPVPPKVVKHQDQSWTVWDRWVMRGNPTLRELLDWLKEKGLNAYSISCGSSLLYNSMFSRHKERMNRRVVDLARDVAGVELPAYRRHVDVVVACEDDNDADVDIPLVSVYFA	binds	
Protein phosphatase 2 A (protein, UniProt Q39247 1-501) MNGGDDAATSGPPPSLEWRFSQVFGERTAGEEVQEVDIISAIEFDKSGDHLATGDRGGRVVLFERTDTKDHGGSRKDLEQTDYPVRHPEFRYKTEFQSHEPEFDYLKSLEIEEKINKIRWCQPANGALFLLSTNDKTIKYWKVQEKKIKKISEMNIDPSESSNIPPQLVTNGLPADKGHDYLSKDFSFPPGGIPSLRLPVVVTSQETNLVARCRRVYAHAHDYHINSISNSSDGETFISADDLRVNLWNLEISNQSFNIVDVKPTNMEDLTEVITSAEFHPIHCNMLAYSSSKGSIRLIDMRQSALCDSHTKLFEEPEAPGSRSFFTEIIASISDIKFSKDGRYILSRDYMTLKLWDINMDSGPVASYQVHEHLRPRLCDLYENDSIFDKFECCLSGDGLRVATGSYSNLFRVFGASQGSTEAATLEASKNPMRRQIQTPARPSRSIGSMTRVVRRGSESPGTEANGNAYDFTTKLLHMAWHPTENSIACAAANSLYMYYA		binds
CRWN4 (protein, UniProt Q9FLH0 1-1010) MATSSRSERFPITPSTAATNRLTITPNSRVLKSPLTEEIMWKRLKDAGFDEQSIKNRDKAALIAYIAKLESEVYDYQHNMGLLLLEKNELSSQYEEIKASVDESDLTHMREKSAYVSALAEAKKREESLKKDVGIAKECISSLEKTLHEMRAECAETKVSAGSTMSEAHVMIEDALKKLADAEAKMRAAEALQAEANRYHRIAERKLKEVESREDDLTRRLASFKSECETKENEMVIERQTLNERRKSLQQEHERLLDAQVSLNQREDHIFARSQELAELEKGLDTAKTTFEEERKAFEDKKSNLEIALALCAKREEAVSERESSLLKKEQELLVAEEKIASKESELIQNVLANQEVILRKRKSDVEAELECKSKSVEVEIESKRRAWELREVDIKQREDLVGEKEHDLEVQSRALAEKEKDITEKSFNLDEKEKNLVATEEDINRKTTMLEDEKERLRKLDLELQQSLTSLEDKRKRVDSATQKLEALKSETSELSTLEMKLKEELDDLRAQKLEMLAEADRLKVEKAKFEAEWEHIDVKREELRKEAEYITRQREAFSMYLKDERDNIKEERDALRNQHKNDVESLNREREEFMNKMVEEHSEWLSKIQRERADFLLGIEMQKRELEYCIENKREELENSSRDREKAFEQEKKLEEERIQSLKEMAEKELEHVQVELKRLDAERLEIKLDRERREREWAELKDSVEELKVQREKLETQRHMLRAERDEIRHEIEELKKLENLKVALDDMSMAKMQLSNLERSWEKVSALKQKVVSRDDELDLQNGVSTVSNSEDGYNSSMERQNGLTPSSATPFSWIKRCTNLIFKTSPEKSTLMHHYEEEGGVPSEKLKLESSRREEKAYTEGLSIAVERLEAGRKRRGNTSGDETSEPSNNKKRKHDVTQKYSDEADTQSVISSPQNVPEDKHELPSSQTQTPSGMVVISETVKITRVTCETEVTNKVTTLDCSESPSEAGRKMGEETEDGDCNQTGINASETVIHNEAATEDICT		binds
